Assay results: article PMC8546420
No constants are given. Whether binding was seen depends on the method and setting. In cells and extracts the contact can be indirect. Some binding calls cover weakened binding; strength is not graded here. For some assays here: Tags and fused reporters may be left off the sequences shown.

Sequences of proteins named here, by UniProt entry; tags and fusion partners are left off.
UniProt Q6ZNE5: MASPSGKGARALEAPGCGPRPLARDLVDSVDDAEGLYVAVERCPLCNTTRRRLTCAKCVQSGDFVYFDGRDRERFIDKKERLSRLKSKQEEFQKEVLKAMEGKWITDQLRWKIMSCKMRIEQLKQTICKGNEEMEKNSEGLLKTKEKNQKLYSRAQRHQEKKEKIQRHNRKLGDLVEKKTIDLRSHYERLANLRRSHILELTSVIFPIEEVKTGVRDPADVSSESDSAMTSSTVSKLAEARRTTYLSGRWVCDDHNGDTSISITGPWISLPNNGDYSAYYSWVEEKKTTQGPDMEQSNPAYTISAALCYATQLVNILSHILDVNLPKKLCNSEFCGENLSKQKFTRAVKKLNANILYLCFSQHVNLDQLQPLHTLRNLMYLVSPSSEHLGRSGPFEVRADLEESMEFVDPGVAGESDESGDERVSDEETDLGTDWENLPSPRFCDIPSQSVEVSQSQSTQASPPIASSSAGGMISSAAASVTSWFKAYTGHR
UniProt Q14457: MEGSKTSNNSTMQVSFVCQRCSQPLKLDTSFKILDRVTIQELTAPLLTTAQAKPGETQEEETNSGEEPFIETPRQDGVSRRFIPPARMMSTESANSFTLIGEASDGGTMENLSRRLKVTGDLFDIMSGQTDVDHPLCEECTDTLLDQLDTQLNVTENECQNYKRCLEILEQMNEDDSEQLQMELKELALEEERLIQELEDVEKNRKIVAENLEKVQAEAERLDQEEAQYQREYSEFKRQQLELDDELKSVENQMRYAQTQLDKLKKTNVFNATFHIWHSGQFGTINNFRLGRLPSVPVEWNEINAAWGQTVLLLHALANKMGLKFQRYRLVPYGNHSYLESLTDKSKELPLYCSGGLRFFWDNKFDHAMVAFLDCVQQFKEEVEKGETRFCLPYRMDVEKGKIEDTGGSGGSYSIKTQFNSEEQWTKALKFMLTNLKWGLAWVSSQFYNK
UniProt Q99570: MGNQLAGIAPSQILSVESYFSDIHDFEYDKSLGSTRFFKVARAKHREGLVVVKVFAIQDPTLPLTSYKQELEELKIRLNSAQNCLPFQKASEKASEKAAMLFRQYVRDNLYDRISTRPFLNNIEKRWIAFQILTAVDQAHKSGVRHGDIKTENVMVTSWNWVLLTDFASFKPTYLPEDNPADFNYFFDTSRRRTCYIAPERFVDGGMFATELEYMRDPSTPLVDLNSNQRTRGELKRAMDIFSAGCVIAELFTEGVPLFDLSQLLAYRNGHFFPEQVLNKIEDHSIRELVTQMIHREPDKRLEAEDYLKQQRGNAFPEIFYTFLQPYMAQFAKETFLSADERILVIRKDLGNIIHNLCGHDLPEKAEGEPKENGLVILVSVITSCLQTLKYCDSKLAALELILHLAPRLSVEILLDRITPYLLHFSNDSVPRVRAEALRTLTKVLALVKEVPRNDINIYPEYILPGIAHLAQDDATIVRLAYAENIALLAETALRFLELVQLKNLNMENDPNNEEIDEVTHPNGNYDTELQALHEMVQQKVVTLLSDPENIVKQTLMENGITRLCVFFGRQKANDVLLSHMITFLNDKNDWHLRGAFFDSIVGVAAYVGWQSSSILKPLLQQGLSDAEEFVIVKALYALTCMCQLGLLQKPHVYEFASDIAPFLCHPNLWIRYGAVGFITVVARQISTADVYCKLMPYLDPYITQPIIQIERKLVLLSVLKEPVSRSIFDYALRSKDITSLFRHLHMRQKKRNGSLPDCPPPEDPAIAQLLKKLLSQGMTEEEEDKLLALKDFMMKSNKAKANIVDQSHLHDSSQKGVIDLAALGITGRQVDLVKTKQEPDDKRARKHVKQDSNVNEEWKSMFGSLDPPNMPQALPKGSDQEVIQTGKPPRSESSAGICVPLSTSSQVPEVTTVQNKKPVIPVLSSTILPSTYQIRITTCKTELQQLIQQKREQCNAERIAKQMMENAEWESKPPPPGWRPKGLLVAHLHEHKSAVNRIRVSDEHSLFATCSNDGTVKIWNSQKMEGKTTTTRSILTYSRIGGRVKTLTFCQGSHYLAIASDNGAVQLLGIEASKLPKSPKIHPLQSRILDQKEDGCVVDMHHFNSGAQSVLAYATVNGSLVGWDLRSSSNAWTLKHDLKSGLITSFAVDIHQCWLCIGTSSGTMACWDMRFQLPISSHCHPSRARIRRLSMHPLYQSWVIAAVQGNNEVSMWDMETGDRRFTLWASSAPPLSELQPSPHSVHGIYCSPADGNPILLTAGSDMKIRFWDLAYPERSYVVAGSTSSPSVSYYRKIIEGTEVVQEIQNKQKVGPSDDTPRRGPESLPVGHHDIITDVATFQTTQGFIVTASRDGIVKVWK

Experiments:
[1] = target: USP11-GFP (ubiquitin-specific protease 11, WT, GFP-tagged) (human) (UniProt P51784); assay: co-IP; 293 cells co-transfected with GFP-tagged USP11 (WT or C318S) and the tagged partner; basal conditions or Torin 1; in one mTOR experiment His-ubiquitin was also expressed; GFP-Trap or Myc-Trap beads, 4 °C, 1 h; IP buffer 20 mM Tris HCl pH 7.5, 150 mM NaCl, 1% NP-40, 0.5% Triton-X; Western …
[2] = target: T1, USP11(C318S)-GFP (catalytically inactive USP11, GFP-tagged) (human) (UniProt P51784); assay: as above
T1 sequence: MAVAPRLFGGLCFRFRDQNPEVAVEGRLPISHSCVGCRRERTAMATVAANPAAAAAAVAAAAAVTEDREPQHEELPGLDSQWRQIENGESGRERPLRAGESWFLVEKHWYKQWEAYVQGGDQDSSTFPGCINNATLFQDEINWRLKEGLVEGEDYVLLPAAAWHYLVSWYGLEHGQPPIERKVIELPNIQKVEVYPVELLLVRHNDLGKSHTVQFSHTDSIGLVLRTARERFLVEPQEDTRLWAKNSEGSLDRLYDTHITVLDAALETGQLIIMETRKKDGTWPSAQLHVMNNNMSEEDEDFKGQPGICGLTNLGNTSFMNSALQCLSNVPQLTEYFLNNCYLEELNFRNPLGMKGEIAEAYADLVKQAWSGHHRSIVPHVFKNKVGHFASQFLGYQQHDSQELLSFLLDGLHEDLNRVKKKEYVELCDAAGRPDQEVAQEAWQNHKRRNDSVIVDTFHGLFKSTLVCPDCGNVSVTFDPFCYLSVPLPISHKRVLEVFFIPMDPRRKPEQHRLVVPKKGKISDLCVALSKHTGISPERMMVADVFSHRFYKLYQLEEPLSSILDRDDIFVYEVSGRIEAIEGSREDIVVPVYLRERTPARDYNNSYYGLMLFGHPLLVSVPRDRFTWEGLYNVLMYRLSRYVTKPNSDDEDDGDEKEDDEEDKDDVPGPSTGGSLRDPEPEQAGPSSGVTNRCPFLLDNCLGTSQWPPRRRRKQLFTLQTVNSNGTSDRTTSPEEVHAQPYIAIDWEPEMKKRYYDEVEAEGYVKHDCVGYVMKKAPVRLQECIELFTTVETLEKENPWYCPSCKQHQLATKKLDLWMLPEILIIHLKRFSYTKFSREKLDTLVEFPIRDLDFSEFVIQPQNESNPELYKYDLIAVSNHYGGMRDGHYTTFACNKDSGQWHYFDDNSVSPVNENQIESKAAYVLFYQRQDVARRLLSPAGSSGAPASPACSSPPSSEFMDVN

binding [1]	binding [2]	Substance
binds		ATG14 (as coprecipitated with USP11, Fig. S2) (from UniProt Q6ZNE5 1-492)
binds		Beclin 1 (from UniProt Q14457 1-450)
	binds	HA-NRBF2 (nuclear receptor-binding factor 2) (from UniProt Q96F24 1-287)
binds	binds	HA-VPS15 (from UniProt Q99570 1-1358)
